Data source: PubChem BioAssay AID1159578 (Peter MacCallum Cancer Centre, 2015)
Here is an unselected part of about 18,000 deposited reagents. About 1,030 of them (5.7%) were called active. 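Inactive calls also include pools with fewer than 3300 nuclei, whose migration was not assessed.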 The raw values are shown without normalisation. Further read-outs or replicates are left out here.

- Test: 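Knock-downs that alter how fast lymphatic endothelial cells migrate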 (primary screen)
- System: human lymphatic endothelial cells
- Knock-down reagent: siRNA pool against human genes, 40 nM
- Timing: 48 h after transfection
- Measured: 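Cells stained with dye and imaged after a scratch; covered wound area and nuclei counted, duplicates averaged, migration set against mock wells and turned into a robust z-score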
- Reading the numbers: migration robust z-score: higher = faster migration into the scratch; nuclei per well: higher = more cells in the well
- Hit rule: 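Migration changed when robust z exceeds 2 or falls below -2 and mean nuclei number is at least 3300; otherwise not called changed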
- Meaning of the calls: active = migration changed; inactive = no migration change, or too few cells

Against EHD2 the deposit lists migration robust z-score -0.22; nuclei per well, duplicate mean 6264; inactive.
After knock-down of UPF2 the results were migration robust z-score 0.02; nuclei per well, duplicate mean 5582; inactive.
OR52E2 scored migration robust z-score 0.56; nuclei per well, duplicate mean 6110; inactive.
Against RBPJ, the values are migration robust z-score -0.24; nuclei per well, duplicate mean 4197; inactive.
For ANTXR2, the values are migration robust z-score 0.82; nuclei per well, duplicate mean 4706; inactive.
For LRRTM2, the values are migration robust z-score 0.71; nuclei per well, duplicate mean 5816; inactive.
For ZSCAN18 the deposit lists migration robust z-score 0.44; nuclei per well, duplicate mean 6344; inactive.
Silencing of TMEM105 resulted in: migration robust z-score 0.02; nuclei per well, duplicate mean 4011; inactive.
PLLP scored migration robust z-score -1.24; nuclei per well, duplicate mean 4187; inactive.
With knock-down of MFSD2A, the screen gave migration robust z-score -0.06; nuclei per well, duplicate mean 5754; inactive.

Quoted from the entries so far (2 entries):
OR52E2 | migration robust z-score = 0.56; nuclei per well, duplicate mean = 6110; activity call = inactive
RBPJ | migration robust z-score = -0.24; nuclei per well, duplicate mean = 4197; activity call = inactive

Next records:
After knock-down of GATA1 the results were migration robust z-score -0.48; nuclei per well, duplicate mean 4682; inactive.
Against ADAM8 the deposit lists migration robust z-score -0.93; nuclei per well, duplicate mean 6277; inactive.
Silencing of TIMM9 gave: migration robust z-score 1.38; nuclei per well, duplicate mean 6681; inactive.
Silencing of TMPRSS15 came out at: migration robust z-score 0.54; nuclei per well, duplicate mean 5910; inactive.
Against KAT7 the deposit lists migration robust z-score 0; nuclei per well, duplicate mean 4964; inactive.
Knock-down of CDX2 resulted in: migration robust z-score 0.72; nuclei per well, duplicate mean 6504; inactive.
FOXM1 scored migration robust z-score 0; nuclei per well, duplicate mean 5736; inactive.
GFM1 scored migration robust z-score -1.27; nuclei per well, duplicate mean 5470; inactive.
With knock-down of MRFAP1L1, the screen gave migration robust z-score 0.68; nuclei per well, duplicate mean 6209; inactive.
Against ANGPTL2 the deposit lists migration robust z-score 0.06; nuclei per well, duplicate mean 6382; inactive.
POLR2A showed migration robust z-score -9.69; nuclei per well, duplicate mean 1786; inactive.
